Measurements taken from the supplement of paper PMC6411743.
± gives the standard deviation of the averaged measurements. The list shows a part of the results.

Key:
Experiment in all cases: NP40-soluble protein abundance relative to vehicle (solubility fold change) (ratio); higher = more soluble protein in presence of GTP
[1] = target: T1, A0A0A0MSG2|J3KNW4 and related entries (UniProt Q14192)
T1 sequence (whole entry): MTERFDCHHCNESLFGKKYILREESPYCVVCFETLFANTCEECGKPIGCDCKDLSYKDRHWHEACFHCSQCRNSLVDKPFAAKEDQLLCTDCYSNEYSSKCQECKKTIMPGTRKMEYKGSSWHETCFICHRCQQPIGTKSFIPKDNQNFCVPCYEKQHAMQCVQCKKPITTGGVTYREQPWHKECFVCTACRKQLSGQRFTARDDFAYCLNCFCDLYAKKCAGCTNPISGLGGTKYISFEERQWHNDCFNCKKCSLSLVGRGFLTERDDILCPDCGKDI
How it was run: (§1)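 Crude Jurkat lysate, prepared by Dounce homogenisation, was exposed to eight concentrations from 0.1 to 10 mM for 10 min at room temperature and then 3 min at 37 °C. Solubilisation used 0.8% NP40 with benzonase for 60 min at 4 °C, followed by ultracentrifugation and TMT labelling of the supernatant for LC-MS/MS. After vsn normalisation of intensities, each value is the fold change against the detergent-processed vehicle within each replicate, across three independent experiments.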

[2] = target: T2, A0A0A0MTG4|P82094 (UniProt P82094)
T2 sequence (whole entry): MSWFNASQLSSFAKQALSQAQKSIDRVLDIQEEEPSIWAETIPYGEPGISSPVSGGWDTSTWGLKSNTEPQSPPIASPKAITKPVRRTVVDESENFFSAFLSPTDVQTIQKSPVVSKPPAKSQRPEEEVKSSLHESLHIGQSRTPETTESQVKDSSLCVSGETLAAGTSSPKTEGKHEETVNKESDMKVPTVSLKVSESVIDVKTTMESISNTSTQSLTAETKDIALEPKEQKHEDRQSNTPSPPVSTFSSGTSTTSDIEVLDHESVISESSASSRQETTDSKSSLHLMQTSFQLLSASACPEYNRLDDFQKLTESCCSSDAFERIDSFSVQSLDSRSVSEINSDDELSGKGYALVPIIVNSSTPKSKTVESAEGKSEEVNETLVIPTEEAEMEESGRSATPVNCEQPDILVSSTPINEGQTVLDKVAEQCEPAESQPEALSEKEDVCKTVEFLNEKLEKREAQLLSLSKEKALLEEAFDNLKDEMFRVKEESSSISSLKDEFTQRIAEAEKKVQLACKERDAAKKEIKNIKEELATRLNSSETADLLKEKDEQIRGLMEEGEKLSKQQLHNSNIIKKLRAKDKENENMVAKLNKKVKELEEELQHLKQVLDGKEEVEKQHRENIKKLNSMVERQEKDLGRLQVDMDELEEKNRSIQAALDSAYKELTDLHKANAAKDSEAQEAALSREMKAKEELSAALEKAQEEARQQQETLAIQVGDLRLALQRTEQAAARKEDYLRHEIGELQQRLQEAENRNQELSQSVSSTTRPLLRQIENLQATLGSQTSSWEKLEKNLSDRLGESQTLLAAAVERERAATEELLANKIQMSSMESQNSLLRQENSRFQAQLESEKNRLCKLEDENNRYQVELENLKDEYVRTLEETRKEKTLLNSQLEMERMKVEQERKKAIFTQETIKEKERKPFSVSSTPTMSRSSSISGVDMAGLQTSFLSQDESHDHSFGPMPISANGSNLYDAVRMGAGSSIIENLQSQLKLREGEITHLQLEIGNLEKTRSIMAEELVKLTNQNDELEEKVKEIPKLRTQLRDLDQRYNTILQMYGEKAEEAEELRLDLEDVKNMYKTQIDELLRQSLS
How it was run: as §1

[3] = target: T3, A0A0A6YY96|P48200 (UniProt P48200)
T3 sequence (whole entry): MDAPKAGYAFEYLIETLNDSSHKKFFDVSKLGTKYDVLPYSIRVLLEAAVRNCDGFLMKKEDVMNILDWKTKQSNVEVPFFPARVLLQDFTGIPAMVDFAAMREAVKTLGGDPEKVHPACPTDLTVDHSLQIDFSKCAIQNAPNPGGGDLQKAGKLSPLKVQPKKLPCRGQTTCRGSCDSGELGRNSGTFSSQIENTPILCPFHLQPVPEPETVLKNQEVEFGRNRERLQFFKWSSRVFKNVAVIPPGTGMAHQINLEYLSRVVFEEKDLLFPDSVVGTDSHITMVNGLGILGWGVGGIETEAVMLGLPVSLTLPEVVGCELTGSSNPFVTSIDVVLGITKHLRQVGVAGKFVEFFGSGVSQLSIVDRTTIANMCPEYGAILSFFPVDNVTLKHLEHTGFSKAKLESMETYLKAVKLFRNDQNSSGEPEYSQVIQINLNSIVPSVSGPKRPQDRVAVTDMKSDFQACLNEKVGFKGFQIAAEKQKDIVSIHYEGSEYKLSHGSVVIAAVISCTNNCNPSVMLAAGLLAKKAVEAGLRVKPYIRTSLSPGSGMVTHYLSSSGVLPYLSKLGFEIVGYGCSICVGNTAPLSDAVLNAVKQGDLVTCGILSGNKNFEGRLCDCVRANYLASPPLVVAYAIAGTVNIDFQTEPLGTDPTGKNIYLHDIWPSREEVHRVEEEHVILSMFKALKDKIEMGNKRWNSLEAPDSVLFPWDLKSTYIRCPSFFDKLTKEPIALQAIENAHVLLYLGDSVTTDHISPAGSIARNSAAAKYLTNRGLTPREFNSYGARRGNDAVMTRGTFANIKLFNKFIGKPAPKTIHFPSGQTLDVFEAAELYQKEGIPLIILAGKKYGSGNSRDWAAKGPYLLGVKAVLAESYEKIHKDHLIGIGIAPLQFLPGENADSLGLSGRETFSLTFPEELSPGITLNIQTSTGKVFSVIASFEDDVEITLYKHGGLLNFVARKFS
How it was run: as §1

[4] = target: T4, A0A0C4DFN1|Q8IWA4 and related entries (UniProt Q8IWA4)
T4 sequence (whole entry): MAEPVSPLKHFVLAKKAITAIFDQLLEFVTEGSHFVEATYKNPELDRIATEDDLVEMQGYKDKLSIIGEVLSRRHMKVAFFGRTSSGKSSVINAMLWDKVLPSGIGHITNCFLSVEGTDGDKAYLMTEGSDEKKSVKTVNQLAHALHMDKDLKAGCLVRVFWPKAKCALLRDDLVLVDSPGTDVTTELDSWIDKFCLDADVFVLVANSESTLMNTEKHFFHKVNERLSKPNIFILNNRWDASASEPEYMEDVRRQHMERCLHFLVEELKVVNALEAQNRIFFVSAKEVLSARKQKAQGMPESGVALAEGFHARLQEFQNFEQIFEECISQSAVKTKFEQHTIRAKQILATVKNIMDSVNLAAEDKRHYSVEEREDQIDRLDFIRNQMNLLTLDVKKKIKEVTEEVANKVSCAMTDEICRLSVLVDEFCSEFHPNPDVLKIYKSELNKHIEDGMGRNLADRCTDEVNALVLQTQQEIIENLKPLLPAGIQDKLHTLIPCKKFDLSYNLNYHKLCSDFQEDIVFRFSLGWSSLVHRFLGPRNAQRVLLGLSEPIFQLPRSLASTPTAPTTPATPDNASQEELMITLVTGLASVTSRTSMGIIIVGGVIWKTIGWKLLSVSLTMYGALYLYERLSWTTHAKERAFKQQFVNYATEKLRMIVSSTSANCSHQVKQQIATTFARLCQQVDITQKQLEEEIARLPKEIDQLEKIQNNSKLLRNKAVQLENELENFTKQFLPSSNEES
How it was run: as §1

Nc1nc2c(ncn2[C@@H]2O[C@H](COP(=O)(O)OP(=O)(O)OP(=O)(O)O)[C@@H](O)[C@H]2O)c(=O)[nH]1 [guanosine triphosphate]
NP40-soluble protein abundance ([1]; concentration: 4mM): 1.2 ± 0.27
NP40-soluble protein abundance ([1]; concentration: 6mM): 1.13 ± 0.089
NP40-soluble protein abundance ([1]; concentration: 8mM): 1.13 ± 0.19
NP40-soluble protein abundance ([1]; concentration: 10mM): 1.11 ± 0.22
NP40-soluble protein abundance ([2]; concentration: 0.1mM): 0.953 ± 0.043
NP40-soluble protein abundance ([2]; concentration: 0.5mM): 0.939 ± 0.086
NP40-soluble protein abundance ([2]; concentration: 1mM): 0.947 ± 0.077
NP40-soluble protein abundance ([2]; concentration: 2mM): 0.913 ± 0.096
NP40-soluble protein abundance ([2]; concentration: 4mM): 0.91 ± 0.057
NP40-soluble protein abundance ([2]; concentration: 6mM): 0.916 ± 0.07
NP40-soluble protein abundance ([2]; concentration: 8mM): 0.933 ± 0.033
NP40-soluble protein abundance ([2]; concentration: 10mM): 0.948 ± 0.069
NP40-soluble protein abundance ([3]; concentration: 0.1mM): 0.978 ± 0.091
NP40-soluble protein abundance ([3]; concentration: 0.5mM): 0.968 ± 0.095
NP40-soluble protein abundance ([3]; concentration: 1mM): 0.922 ± 0.062
NP40-soluble protein abundance ([3]; concentration: 2mM): 0.946 ± 0.083
NP40-soluble protein abundance ([3]; concentration: 4mM): 0.939 ± 0.064
NP40-soluble protein abundance ([3]; concentration: 6mM): 0.929 ± 0.076
NP40-soluble protein abundance ([3]; concentration: 8mM): 0.906 ± 0.013
NP40-soluble protein abundance ([3]; concentration: 10mM): 0.943 ± 0.039
NP40-soluble protein abundance ([4]; concentration: 0.1mM): 1.04 ± 0.019
NP40-soluble protein abundance ([4]; concentration: 0.5mM): 1.02 ± 0.061
NP40-soluble protein abundance ([4]; concentration: 1mM): 0.981 ± 0.019
NP40-soluble protein abundance ([4]; concentration: 2mM): 0.941 ± 0.018
NP40-soluble protein abundance ([4]; concentration: 4mM): 0.929 ± 0.065
NP40-soluble protein abundance ([4]; concentration: 6mM): 0.948 ± 0.072
